# Source: the supplement of paper PMC10849652
# Amino acid sequences for entries named in this document (tags omitted). A change or cut given only in a name is not applied to a line headed by its entry.
# UniProt O14757: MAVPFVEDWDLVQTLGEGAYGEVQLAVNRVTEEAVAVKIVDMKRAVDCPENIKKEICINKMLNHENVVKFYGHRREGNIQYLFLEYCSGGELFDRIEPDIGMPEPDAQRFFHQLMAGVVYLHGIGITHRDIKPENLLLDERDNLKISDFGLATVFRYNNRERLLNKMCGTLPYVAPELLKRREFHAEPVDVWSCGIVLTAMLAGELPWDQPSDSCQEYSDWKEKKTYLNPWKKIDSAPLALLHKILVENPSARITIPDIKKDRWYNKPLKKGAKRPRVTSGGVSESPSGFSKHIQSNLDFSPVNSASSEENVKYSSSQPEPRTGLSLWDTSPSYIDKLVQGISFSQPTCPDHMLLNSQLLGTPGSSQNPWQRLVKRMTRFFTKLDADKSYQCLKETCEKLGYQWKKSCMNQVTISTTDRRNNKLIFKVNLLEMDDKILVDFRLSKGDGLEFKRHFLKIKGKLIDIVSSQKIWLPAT
# UniProt O00748: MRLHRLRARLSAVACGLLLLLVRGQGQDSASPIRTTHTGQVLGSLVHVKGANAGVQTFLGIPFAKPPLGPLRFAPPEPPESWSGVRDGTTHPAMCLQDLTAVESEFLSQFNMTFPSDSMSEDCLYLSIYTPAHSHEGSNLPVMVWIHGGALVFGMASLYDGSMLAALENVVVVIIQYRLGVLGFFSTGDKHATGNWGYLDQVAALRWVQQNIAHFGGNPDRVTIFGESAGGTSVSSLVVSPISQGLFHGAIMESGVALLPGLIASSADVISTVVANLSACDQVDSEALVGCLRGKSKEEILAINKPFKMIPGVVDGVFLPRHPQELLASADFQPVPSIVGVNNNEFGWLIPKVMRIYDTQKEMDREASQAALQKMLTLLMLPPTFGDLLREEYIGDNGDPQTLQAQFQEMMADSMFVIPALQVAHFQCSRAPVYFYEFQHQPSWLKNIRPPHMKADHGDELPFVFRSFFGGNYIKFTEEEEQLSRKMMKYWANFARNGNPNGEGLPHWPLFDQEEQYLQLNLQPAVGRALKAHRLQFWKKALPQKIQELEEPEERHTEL
# UniProt Q96SZ6: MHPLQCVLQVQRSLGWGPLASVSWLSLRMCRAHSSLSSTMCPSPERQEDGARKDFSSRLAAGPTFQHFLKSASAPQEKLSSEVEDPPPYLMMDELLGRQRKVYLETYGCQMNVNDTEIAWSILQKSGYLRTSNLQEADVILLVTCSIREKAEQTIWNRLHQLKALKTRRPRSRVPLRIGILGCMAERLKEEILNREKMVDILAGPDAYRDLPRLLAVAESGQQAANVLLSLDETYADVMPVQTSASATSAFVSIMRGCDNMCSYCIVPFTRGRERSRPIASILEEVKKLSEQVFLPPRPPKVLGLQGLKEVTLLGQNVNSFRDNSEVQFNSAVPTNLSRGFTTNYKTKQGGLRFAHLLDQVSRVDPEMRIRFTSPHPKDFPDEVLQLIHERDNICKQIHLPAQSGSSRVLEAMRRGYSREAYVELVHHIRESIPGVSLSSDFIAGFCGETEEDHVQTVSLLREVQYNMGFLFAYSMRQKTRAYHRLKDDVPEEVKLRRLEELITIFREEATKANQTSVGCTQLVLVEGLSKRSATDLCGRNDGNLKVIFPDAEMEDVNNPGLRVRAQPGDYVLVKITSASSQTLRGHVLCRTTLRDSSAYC
# UniProt O75419: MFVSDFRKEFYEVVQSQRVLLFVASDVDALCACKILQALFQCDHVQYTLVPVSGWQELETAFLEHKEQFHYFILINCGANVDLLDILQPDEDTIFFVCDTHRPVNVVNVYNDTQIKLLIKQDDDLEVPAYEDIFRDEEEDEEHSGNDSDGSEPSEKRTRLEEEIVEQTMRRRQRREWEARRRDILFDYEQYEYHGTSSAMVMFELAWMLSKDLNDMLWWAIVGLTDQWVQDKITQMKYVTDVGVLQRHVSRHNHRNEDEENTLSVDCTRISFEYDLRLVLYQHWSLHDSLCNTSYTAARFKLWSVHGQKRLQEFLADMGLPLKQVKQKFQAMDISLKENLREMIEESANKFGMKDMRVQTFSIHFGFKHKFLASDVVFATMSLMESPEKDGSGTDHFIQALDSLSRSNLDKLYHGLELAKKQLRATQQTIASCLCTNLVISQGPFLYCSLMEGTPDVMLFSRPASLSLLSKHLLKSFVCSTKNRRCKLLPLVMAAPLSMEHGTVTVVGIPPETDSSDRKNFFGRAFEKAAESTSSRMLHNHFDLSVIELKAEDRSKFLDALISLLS
# UniProt P35790, whole entry, looked up: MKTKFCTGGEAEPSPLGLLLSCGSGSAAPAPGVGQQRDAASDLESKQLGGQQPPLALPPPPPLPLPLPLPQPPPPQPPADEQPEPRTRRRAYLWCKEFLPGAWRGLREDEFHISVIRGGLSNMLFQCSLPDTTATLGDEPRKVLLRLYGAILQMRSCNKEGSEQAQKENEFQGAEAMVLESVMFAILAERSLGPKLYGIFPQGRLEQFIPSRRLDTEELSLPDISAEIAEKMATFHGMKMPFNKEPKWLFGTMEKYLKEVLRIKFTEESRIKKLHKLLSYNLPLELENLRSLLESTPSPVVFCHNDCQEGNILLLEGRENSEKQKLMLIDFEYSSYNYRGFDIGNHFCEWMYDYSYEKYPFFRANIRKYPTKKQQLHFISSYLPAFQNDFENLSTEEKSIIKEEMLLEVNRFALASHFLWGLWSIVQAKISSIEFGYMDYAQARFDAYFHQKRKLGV
# UniProt Q9P2B7: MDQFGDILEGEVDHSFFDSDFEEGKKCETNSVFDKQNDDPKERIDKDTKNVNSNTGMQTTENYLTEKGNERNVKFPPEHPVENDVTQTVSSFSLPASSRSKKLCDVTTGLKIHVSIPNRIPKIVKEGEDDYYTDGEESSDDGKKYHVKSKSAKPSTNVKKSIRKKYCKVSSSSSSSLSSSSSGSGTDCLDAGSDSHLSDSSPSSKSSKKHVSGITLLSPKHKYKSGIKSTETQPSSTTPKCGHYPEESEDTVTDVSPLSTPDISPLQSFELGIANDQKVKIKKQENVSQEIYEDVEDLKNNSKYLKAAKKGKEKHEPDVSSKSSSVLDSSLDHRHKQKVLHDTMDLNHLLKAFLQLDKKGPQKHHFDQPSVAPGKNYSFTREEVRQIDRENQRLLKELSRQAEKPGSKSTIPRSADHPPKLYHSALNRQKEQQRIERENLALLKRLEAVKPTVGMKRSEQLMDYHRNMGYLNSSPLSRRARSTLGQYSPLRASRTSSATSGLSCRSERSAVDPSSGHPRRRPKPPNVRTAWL
# UniProt Q5VT25: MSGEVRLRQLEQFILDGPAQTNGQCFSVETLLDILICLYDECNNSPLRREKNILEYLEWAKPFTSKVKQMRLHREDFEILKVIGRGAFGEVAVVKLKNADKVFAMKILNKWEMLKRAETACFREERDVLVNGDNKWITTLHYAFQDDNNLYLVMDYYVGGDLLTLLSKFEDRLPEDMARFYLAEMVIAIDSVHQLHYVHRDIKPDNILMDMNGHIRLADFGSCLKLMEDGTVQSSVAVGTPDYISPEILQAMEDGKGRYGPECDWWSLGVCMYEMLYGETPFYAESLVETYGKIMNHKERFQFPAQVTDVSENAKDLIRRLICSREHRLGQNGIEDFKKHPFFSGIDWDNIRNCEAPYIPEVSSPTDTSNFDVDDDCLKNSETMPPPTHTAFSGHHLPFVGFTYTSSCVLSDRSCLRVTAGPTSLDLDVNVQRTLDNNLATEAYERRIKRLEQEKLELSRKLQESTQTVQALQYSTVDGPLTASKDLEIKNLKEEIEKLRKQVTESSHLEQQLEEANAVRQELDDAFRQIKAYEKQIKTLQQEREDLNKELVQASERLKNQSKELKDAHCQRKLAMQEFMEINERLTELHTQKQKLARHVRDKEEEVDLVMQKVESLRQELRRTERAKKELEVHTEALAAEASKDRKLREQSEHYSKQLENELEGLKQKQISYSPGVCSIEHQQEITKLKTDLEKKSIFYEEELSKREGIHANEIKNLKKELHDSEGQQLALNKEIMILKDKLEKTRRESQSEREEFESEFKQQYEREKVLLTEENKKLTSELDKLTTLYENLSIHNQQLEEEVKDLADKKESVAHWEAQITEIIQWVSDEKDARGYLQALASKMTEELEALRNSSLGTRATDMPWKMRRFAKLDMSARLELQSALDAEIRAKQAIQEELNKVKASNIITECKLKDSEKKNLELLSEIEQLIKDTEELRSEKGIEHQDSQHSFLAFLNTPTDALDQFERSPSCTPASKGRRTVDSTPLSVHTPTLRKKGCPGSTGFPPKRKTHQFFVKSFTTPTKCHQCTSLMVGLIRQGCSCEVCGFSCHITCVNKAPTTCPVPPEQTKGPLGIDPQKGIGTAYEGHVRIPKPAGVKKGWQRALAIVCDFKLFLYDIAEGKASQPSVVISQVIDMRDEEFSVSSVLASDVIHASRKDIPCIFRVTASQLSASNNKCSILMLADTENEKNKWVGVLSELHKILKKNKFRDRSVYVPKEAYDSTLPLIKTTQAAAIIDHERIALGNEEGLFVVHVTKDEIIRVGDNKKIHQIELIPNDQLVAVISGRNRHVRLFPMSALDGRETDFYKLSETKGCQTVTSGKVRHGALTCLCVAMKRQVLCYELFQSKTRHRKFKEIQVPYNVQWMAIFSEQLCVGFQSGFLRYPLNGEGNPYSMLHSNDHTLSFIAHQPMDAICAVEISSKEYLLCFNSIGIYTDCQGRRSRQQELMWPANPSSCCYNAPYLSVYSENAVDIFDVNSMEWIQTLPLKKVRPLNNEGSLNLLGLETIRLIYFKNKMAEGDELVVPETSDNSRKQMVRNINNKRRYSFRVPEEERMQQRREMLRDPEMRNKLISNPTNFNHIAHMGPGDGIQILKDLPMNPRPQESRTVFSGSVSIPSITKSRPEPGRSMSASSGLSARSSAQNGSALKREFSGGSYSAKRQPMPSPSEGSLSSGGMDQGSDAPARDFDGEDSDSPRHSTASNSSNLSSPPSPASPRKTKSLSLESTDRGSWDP
# UniProt Q96CF2: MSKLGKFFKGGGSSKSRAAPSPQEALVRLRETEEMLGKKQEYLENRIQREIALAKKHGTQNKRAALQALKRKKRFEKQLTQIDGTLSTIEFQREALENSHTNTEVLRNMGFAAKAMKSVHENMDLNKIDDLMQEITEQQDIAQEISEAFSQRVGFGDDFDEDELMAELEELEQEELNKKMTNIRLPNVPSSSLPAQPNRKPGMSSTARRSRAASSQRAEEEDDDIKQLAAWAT
# UniProt P46527, whole entry, looked up: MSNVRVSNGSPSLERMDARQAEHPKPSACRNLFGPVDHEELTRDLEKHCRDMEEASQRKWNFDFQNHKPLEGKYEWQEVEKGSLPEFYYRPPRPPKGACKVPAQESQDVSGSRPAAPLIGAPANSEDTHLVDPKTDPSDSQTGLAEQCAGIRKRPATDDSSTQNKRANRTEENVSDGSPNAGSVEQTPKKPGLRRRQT
# UniProt O15182: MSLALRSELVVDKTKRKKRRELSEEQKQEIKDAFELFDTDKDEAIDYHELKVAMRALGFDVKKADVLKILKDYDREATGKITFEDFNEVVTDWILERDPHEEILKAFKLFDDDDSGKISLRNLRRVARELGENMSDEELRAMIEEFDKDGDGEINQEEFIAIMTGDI
# UniProt Q00587: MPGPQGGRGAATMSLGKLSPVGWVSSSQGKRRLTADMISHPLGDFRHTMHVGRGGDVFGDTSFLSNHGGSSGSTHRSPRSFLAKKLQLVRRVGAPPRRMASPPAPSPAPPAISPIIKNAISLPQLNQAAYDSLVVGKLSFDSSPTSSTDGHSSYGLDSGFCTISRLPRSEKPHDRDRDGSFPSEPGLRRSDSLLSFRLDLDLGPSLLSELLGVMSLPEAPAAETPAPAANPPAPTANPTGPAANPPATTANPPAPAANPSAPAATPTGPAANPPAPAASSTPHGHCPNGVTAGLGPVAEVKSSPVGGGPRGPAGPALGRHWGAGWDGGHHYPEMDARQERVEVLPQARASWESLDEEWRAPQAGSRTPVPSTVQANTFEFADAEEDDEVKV
# UniProt Q00534, whole entry, looked up: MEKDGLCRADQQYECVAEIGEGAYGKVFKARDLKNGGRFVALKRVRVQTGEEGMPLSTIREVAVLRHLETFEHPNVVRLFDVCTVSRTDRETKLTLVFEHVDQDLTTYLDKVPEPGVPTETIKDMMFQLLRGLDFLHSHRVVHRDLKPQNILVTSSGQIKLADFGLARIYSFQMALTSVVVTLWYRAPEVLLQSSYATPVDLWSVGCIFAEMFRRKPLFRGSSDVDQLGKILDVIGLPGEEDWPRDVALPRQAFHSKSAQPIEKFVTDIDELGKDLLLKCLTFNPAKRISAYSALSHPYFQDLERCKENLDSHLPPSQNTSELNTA
# UniProt Q9NRR8: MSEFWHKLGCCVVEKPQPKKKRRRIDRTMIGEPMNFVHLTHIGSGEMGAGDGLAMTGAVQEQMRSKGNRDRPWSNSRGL
# UniProt Q9BUK0: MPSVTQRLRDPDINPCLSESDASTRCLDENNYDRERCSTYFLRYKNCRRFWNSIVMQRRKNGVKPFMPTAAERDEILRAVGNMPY
# UniProt Q9UKJ5: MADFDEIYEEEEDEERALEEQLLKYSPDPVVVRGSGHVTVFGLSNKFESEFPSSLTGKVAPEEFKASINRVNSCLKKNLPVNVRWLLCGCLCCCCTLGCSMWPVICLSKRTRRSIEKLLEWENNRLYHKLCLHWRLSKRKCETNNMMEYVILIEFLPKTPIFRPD
# This is one part of the list.
# Columns and labels:
# Test in all cases: log2 fold change, soluble protein after heating vs DMSO (PISA); higher = thermal stabilisation; K562 cells, 10 uM, 30 min; active = over 0.2 and 3.5 SD of the protein, either way, in both replicates (recomputed)
# [1] = compound: CS(=O)(=O)c1ccc(-c2cnc(N)c(C(=O)Nc3ccccc3)n2)cc1
# Method in brief: (§1)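 Soluble protein was defined as the supernatant after 21,000xg for 90 min. It came from K562 cells at 2×10^6 cells/mL given 10 μM compound for 30 min, heated in aliquots for 3 min across 48°C-58°C, pooled, and extracted in PBS with 0.5% NP-40 at 4°C, and was quantified by TMTpro 16plex LC-MS/MS with equalised channel sums. Thermal stability against control samples, from duplicates, is reported as log2 fold change.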
# [2] = compound: C[C@@H](Oc1cc(-c2cnn(C3CCNCC3)c2)cnc1N)c1c(Cl)ccc(F)c1Cl [crizotinib]
# Method in brief: as §1
# [3] = compound: C[C@@H]1COCCN1C2=NC(=NC(=C2)C3(CC3)S(=O)(=O)C)C4=C5C=CNC5=CC=C4
# Method in brief: as §1
# [4] = compound: C[C@H](C1=CC=C(C=C1)C(=O)NC2=C3C=CNC3=NC=C2)N
# Method in brief: as §1
# [5] = compound: Cc1cc(Nc2cc(CN3CCOCC3)c3nc(C)c(Cc4ccc(Cl)cc4F)n3n2)n[nH]1 [gandotinib]
# Method in brief: as §1
# [6] = compound: Cc1cc(SCc2sc(-c3ccc(C(F)(F)F)cc3)nc2C)ccc1OCC(=O)O
# Method in brief: as §1
# [7] = compound: Cc1ccc(-n2nc(C(C)(C)C)cc2NC(=O)Nc2ccc(OCCN3CCOCC3)c3ccccc23)cc1 [doramapimod]
# Method in brief: as §1
# [8] = compound: Cc1ccc(C(=O)N(CCCN)[C@@H](c2nc3cc(Cl)ccc3c(=O)n2Cc2ccccc2)C(C)C)cc1 [ispinesib]
# Method in brief: as §1
# [9] = compound: Cc1ccc(NC(=O)c2ccc(CN3CC[C@H](N(C)C)C3)c(C(F)(F)F)c2)cc1Nc1nccc(-c2cncnc2)n1 [bafetinib]
# Method in brief: as §1
# [10] = compound: Cc1cccc(CC(=O)N2CCc3c2ccc(-c2cn(C)c4ncnc(N)c24)c3F)n1
# Method in brief: as §1
# [11] = compound: Cc1cn(-c2cc(NC(=O)c3ccc(C)c(Nc4nccc(-c5cccnc5)n4)c3)cc(C(F)(F)F)c2)cn1 [nilotinib]
# Method in brief: as §1
# [12] = compound: Cc1nc(Nc2n[nH]c3c2CN(C(=O)N[C@H](CN(C)C)c2ccccc2)C3(C)C)c2sccc2n1
# Method in brief: as §1
# [13] = compound: Cc1nc(Nc2ncc(C(=O)Nc3c(C)cccc3Cl)s2)cc(N2CCN(CCO)CC2)n1 [dasatinib]
# Method in brief: as §1
# [14] = compound: Cc1ncc(-c2ccnc(Nc3ccc(S(C)(=O)=O)cc3)n2)n1C(C)C
# Method in brief: as §1
# [15] = compound: Cn1cc(-c2ccc3c(c2)CCN3C(=O)Cc2cccc(C(F)(F)F)c2)c2c(N)ncnc21
# Method in brief: as §1
# [16] = compound: Cn1cc(-c2ccc3nnc(C(F)(F)c4ccc5ncccc5c4)n3n2)cn1
# Method in brief: as §1
# [17] = compound: Cn1cncc1[C@@](N)(c1ccc(Cl)cc1)c1ccc2c(c1)c(-c1cccc(Cl)c1)cc(=O)n2C [tipifarnib]
# Method in brief: as §1
# [18] = compound: FC(F)(F)c1ccc(/C=C/c2nc(COc3ccc(CCCCn4ccnn4)cc3)co2)cc1 [mubritinib]
# Method in brief: as §1
# [19] = compound: C[C@H](Nc1ncnc2nc[nH]c12)c1cc2cccc(Cl)c2c(=O)n1-c1ccccc1 [duvelisib]
# Method in brief: as §1
# [20] = compound: Cc1cc(Nc2cc(N3CCN(C)CC3)nc(Sc3ccc(NC(=O)C4CC4)cc3)n2)n[nH]1 [tozasertib]
# Method in brief: as §1
Target,log2 fold change [1],log2 fold change [2],log2 fold change [3],log2 fold change [4],log2 fold change [5],log2 fold change [6],log2 fold change [7],log2 fold change [8],log2 fold change [9],log2 fold change [10],log2 fold change [11],log2 fold change [12],log2 fold change [13],log2 fold change [14],log2 fold change [15],log2 fold change [16],log2 fold change [17],log2 fold change [18],log2 fold change [19],log2 fold change [20]
CHEK1 (UniProt O14757),inactive: 0.011,inactive: -0.116,inactive: 0.044,inactive: 0.049,inactive: -0.122,inactive: 0.008,inactive: -0.009,inactive: 0.039,inactive: -0.053,inactive: 0.02,inactive: -0.05,active: -1.17,inactive: -0.064,inactive: 0.002,inactive: 0.021,inactive: -0.022,inactive: 0.005,inactive: 0.048,,
CES2 isoform 4 (UniProt O00748),inactive: 0.162,inactive: 0.154,inactive: 0.03,inactive: -0.079,inactive: 0.048,inactive: -0.188,inactive: 0.144,inactive: -0.047,inactive: -0.006,inactive: -0.104,inactive: 0.274,inactive: -0.045,inactive: 0.119,inactive: -0.036,active: 0.489,inactive: 0.166,inactive: 0.28,inactive: 0.111,,
CDK5RAP1 (UniProt Q96SZ6),inactive: 0.005,inactive: 0.041,inactive: 0.033,inactive: 0.031,inactive: 0.033,inactive: -0.025,inactive: 0.05,inactive: 0.048,inactive: -0.052,inactive: -0.058,inactive: 0,inactive: -0.008,inactive: 0.175,inactive: -0.006,inactive: 0.044,inactive: 0.017,inactive: 0.031,inactive: -0.03,,
CDC45 isoform 3 (UniProt O75419),inactive: 0.115,inactive: -0.228,inactive: 0.07,inactive: 0.179,inactive: -0.053,inactive: 0.096,inactive: 0.174,inactive: -0.198,,inactive: 0.07,inactive: -0.287,inactive: -0.198,inactive: -0.141,inactive: -0.102,inactive: -0.042,inactive: -0.057,inactive: -0.153,,inactive: 0.039,inactive: -0.012
CHKA (UniProt P35790),inactive: -0.022,inactive: 0.075,inactive: -0.034,inactive: 0.046,inactive: 0.009,inactive: -0.012,inactive: -0.011,inactive: 0.048,inactive: 0.123,inactive: -0.023,inactive: 0.178,inactive: 0.149,inactive: 0.07,inactive: 0.088,inactive: -0.02,inactive: -0.081,inactive: -0.026,inactive: -0.024,,
CDK16 isoform 2 (UniProt Q00536),inactive: 0.03,inactive: -0.036,inactive: 0.06,inactive: -0.07,active: 0.436,inactive: 0.096,inactive: -0.022,inactive: -0.046,inactive: 0.038,inactive: -0.047,inactive: 0.013,active: 0.619,inactive: 0,active: 0.679,inactive: -0.014,inactive: 0.013,inactive: -0.072,inactive: 0.035,,
CFAP97 (UniProt Q9P2B7),inactive: -0.144,inactive: -0.045,inactive: -0.155,inactive: 0.069,inactive: -0.145,inactive: 0.042,inactive: 0.091,inactive: -0.044,inactive: 0.048,inactive: 0,,,inactive: 0.077,,inactive: -0.078,inactive: -0.156,inactive: -0.069,,inactive: 0.005,inactive: 0
CDC42BPA isoform 6 (UniProt Q5VT25),inactive: 0.03,active: -0.477,inactive: -0.016,active: -0.596,inactive: -0.148,inactive: 0.002,inactive: 0.071,inactive: -0.049,inactive: 0.051,inactive: 0.102,inactive: 0.28,active: -0.682,inactive: -0.254,inactive: 0.135,inactive: 0.036,inactive: 0.008,inactive: -0.185,inactive: 0.037,,
CHMP4C (UniProt Q96CF2),inactive: -0.044,inactive: -0.007,inactive: -0.256,inactive: -0.003,inactive: 0.073,inactive: 0.03,inactive: -0.046,inactive: -0.079,inactive: -0.01,inactive: -0.003,inactive: -0.03,inactive: -0.021,inactive: -0.027,inactive: 0,inactive: -0.008,inactive: 0.041,inactive: -0.015,inactive: 0.039,,
CERS2 (UniProt Q96G23),inactive: -0.027,active: -0.294,inactive: -0.054,inactive: -0.034,inactive: -0.203,inactive: -0.032,inactive: -0.04,active: -0.466,inactive: -0.177,inactive: 0.064,inactive: -0.128,inactive: -0.015,inactive: -0.113,inactive: 0.028,inactive: -0.034,inactive: 0.028,inactive: -0.074,inactive: -0.03,,
CDKN1B (UniProt P46527),inactive: -0.017,inactive: -0.018,inactive: -0.295,inactive: -0.065,inactive: 0.077,inactive: -0.06,inactive: -0.071,inactive: -0.01,inactive: -0.001,inactive: -0.05,inactive: 0.013,inactive: -0.097,inactive: 0.004,inactive: 0.149,inactive: 0.108,inactive: 0.04,inactive: 0.009,inactive: 0.114,,
CEP350 (UniProt Q5VT06),inactive: -0.01,inactive: -0.013,inactive: -0.015,inactive: 0.263,inactive: 0.287,inactive: 0.131,inactive: 0.33,inactive: 0.067,,inactive: 0.064,inactive: -0.065,inactive: -0.169,inactive: 0,inactive: 0.017,inactive: -0.095,inactive: 0.149,inactive: -0.035,inactive: 0.063,inactive: -0.077,inactive: 0.148
CETN3 (UniProt O15182),inactive: -0.018,inactive: 0.014,inactive: -0.084,inactive: -0.071,inactive: 0.094,inactive: -0.094,inactive: -0.018,inactive: 0,inactive: -0.052,active: -0.249,inactive: -0.051,inactive: 0.04,inactive: 0.068,inactive: -0.013,inactive: -0.026,inactive: -0.006,inactive: 0.086,inactive: 0.112,,
CDC42EP1 (UniProt Q00587),inactive: -0.006,active: -0.566,inactive: 0.019,inactive: -0.041,active: -0.524,inactive: 0.073,inactive: 0.076,inactive: -0.327,inactive: -0.115,inactive: 0.092,inactive: -0.072,active: -0.59,inactive: -0.2,inactive: -0.211,inactive: 0.079,inactive: 0.051,inactive: 0.049,inactive: 0.007,,
CDK6 (UniProt Q00534),inactive: 0.062,inactive: -0.033,inactive: -0.042,inactive: -0.004,inactive: -0.009,inactive: -0.012,inactive: 0.018,inactive: 0.024,inactive: -0.017,inactive: -0.002,inactive: -0.021,inactive: -0.079,inactive: -0.01,inactive: 0.081,inactive: -0.019,inactive: -0.033,inactive: -0.043,inactive: 0.012,,
CDC42SE1 (UniProt Q9NRR8),inactive: 0,inactive: -0.099,inactive: 0.16,inactive: -0.031,,inactive: -0.04,inactive: -0.06,inactive: -0.341,inactive: -0.37,,inactive: 0.055,inactive: 0.055,inactive: -0.022,inactive: -0.155,inactive: 0.107,inactive: -0.002,inactive: -0.01,inactive: -0.065,,
CHCHD7 isoform 4 (UniProt Q9BUK0),inactive: -0.05,inactive: -0.025,,inactive: -0.171,inactive: -0.007,inactive: 0.038,inactive: -0.05,inactive: 0.019,inactive: -0.101,inactive: 0.122,inactive: -0.092,inactive: -0.005,inactive: 0.044,inactive: -0.064,inactive: 0.028,inactive: -0.016,inactive: -0.005,inactive: -0.02,inactive: 0.042,inactive: -0.038
CHIC2 (UniProt Q9UKJ5),inactive: 0.094,,inactive: 0.098,inactive: -0.009,inactive: -0.044,inactive: -0.102,,inactive: 0.115,inactive: 0.173,inactive: -0.044,inactive: 0.02,inactive: -0.089,inactive: 0.035,inactive: 0.132,inactive: 0.015,inactive: -0.143,inactive: 0.012,inactive: 0.045,inactive: 0.161,

# Reformatted as tab-separated lines: entries from further up.
Target	log2 fold change [1]	log2 fold change [2]	log2 fold change [3]	log2 fold change [4]	log2 fold change [5]	log2 fold change [6]	log2 fold change [7]	log2 fold change [8]	log2 fold change [9]	log2 fold change [10]	log2 fold change [11]	log2 fold change [12]	log2 fold change [13]	log2 fold change [14]	log2 fold change [15]	log2 fold change [16]	log2 fold change [17]	log2 fold change [18]	log2 fold change [19]	log2 fold change [20]
CDKN1B (UniProt P46527)	inactive: -0.017	inactive: -0.018	inactive: -0.295	inactive: -0.065	inactive: 0.077	inactive: -0.06	inactive: -0.071	inactive: -0.01	inactive: -0.001	inactive: -0.05	inactive: 0.013	inactive: -0.097	inactive: 0.004	inactive: 0.149	inactive: 0.108	inactive: 0.04	inactive: 0.009	inactive: 0.114		
CEP350 (UniProt Q5VT06)	inactive: -0.01	inactive: -0.013	inactive: -0.015	inactive: 0.263	inactive: 0.287	inactive: 0.131	inactive: 0.33	inactive: 0.067		inactive: 0.064	inactive: -0.065	inactive: -0.169	inactive: 0	inactive: 0.017	inactive: -0.095	inactive: 0.149	inactive: -0.035	inactive: 0.063	inactive: -0.077	inactive: 0.148
